Measurements from PMC6813348.
No constants are given. Whether binding was seen depends on the method and setting. For some of these results: In cells and extracts the contact can be indirect. Some binding calls cover weakened binding; strength is not graded here. For some of these results: Sequences can lack the tags named with a protein.

Sequences of proteins named here, by UniProt entry; tags and fusion partners are left off.
UniProt P40337: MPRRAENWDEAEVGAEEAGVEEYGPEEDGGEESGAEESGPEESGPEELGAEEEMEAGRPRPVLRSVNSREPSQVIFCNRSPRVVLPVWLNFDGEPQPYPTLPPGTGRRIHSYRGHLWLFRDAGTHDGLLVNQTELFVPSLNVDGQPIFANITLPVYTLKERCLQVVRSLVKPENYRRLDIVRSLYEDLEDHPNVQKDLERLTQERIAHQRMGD

T1: NLS-GFP-Btn2 (S. cerevisiae) (UniProt P53286)
T1 sequence: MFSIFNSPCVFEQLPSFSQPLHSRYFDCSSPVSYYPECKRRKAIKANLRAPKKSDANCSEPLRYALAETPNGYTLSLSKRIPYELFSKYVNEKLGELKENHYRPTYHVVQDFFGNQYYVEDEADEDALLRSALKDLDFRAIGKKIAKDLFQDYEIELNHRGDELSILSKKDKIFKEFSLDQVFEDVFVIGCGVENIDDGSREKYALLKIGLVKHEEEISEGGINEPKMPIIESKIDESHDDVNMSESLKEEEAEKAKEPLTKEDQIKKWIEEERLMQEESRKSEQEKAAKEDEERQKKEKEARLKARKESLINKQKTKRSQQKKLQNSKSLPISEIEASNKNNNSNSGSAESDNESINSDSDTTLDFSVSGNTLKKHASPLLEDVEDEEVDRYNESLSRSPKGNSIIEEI

T2: NLS-GFP-CTD (S. cerevisiae) (UniProt P53286)
T2 sequence: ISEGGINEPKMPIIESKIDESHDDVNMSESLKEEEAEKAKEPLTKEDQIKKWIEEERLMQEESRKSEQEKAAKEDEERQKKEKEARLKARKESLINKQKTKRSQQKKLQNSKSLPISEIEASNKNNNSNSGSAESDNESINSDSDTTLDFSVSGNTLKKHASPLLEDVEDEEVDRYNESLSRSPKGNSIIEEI

T3: NLS-GFP-αCLD (S. cerevisiae) (UniProt P53286)
T3 sequence: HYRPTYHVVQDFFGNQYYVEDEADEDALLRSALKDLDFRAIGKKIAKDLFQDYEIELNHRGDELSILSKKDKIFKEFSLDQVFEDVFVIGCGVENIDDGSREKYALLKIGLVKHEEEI

T4: Btn2ΔN (S. cerevisiae) (UniProt P53286)
T4 sequence: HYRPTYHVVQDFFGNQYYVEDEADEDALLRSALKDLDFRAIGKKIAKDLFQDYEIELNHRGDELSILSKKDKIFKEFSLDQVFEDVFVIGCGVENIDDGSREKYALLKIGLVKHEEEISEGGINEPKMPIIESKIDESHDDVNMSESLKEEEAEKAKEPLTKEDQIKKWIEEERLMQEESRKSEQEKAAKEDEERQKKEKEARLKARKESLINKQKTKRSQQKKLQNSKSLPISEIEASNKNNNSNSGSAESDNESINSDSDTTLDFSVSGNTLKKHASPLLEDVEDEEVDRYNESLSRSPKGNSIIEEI


Columns and labels:
[1] = biological target: T1, NLS-GFP-Btn2 (S. cerevisiae); assay: co-IP; lysate of hsp42Δ btn2Δ yeast after proteotoxic stress (37 °C + MG132); GFP constructs isolated on GFP-binder beads in IP buffer (50 mM Tris pH 7.5, 150 mM NaCl, 0.1% TX-100), 4 °C, 1 h; mCherry-VHL detected by western blot
[2] = biological target: T2, NLS-GFP-CTD (S. cerevisiae); assay: as above
[3] = biological target: T3, NLS-GFP-αCLD (S. cerevisiae); assay: as above
Btn2ΔN (S. cerevisiae) = biological target: T4, Btn2ΔN (S. cerevisiae); assay: pull-down; 1 μM of each protein in buffer A, 25 °C, 15 min; Btn2 isolated on Btn2-binder beads (Btn2 antibodies on NHS-sepharose), seven washes; SDS-PAGE with SYPRO-Ruby; both purified

binding (Btn2ΔN (S. cerevisiae))	Molecule	binding [1]	binding [2]	binding [3]
–	mCherry-VHL (from UniProt P40337 1-213)	binds	no binding	binds
no binding (tested: 1 μM)	Sis1 (protein, UniProt P25294 1-352) MVKETKLYDLLGVSPSANEQELKKGYRKAALKYHPDKPTGDTEKFKEISEAFEILNDPQKREIYDQYGLEAARSGGPSFGPGGPGGAGGAGGFPGGAGGFSGGHAFSNEDAFNIFSQFFGGSSPFGGADDSGFSFSSYPSGGGAGMGGMPGGMGGMHGGMGGMPGGFRSASSSPTYPEEETVQVNLPVSLEDLFVGKKKSFKIGRKGPHGASEKTQIDIQLKPGWKAGTKITYKNQGDYNPQTGRRKTLQFVIQEKSHPNFKRDGDDLIYTLPLSFKESLLGFSKTIQTIDGRTLPLSRVQPVQPSQTSTYPGQGMPTPKNPSQRGNLIVKYKVDYPISLNDAQKRAIDENF	–	–	–
